{"source": "PubChem BioAssay AID651640", "about": "(Broad Institute, 2012)", "note": "The list shows a part of the results, in another mix than the full data. Inconclusive results are not listed. The source made the active and inactive calls. Rule as the data show it: active = CPE inhibition above about 20% (passing the limit was not always enough); inconclusive = no clear call, values can overlap the other calls; tested in BHK-21 cells.", "data": [{"test": "inhibitors of DENV2 cytopathic effect, primary screen, cell-based, plate reader, single concentration (AID 651640);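 also: 0% = median of neutral control wells and 100% = median of positive control wells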", "conditions": "DENV2-infected cells, cytopathic effect rescue, at 9.99 µM, hits give high values", "values": [{"smiles": "CCCCCCCCc1ccc(O)cc1", "CPE inhibition": "active: 45.4%"}]}]}
